Measured values published in PubChem BioAssay AID2685 (National Center for Advancing Translational Sciences (NCATS), 2010).
The whole screen tested about 320,000 compounds, of which about 2,100 (0.66%) were called active. The inconclusive results got no clear call from the source; some entries with a clear call stand among them for comparison. Calls come from the whole dose curve; as a rule, active = well fitted inhibition curve with a large enough effect in the signal ratio, with a control signal flat (not every such curve was filed as active); inconclusive = small, poorly fitted or top-dose-only effect, or effect the other way, or a change in a side signal; inactive = flat fitted curve, though single readings scatter; the % refers to the signal ratio. A potency beside an inconclusive call is a rough fit, not a confirmed value.

Test: qHTS Assay for Lipid Storage Modulators in Drosophila S3 Cells
Conditions: BODIPY lipid droplet fluorescence, 18-24 h, cells fed with added oleic acid; lipid storage change, negative = inhibition: at 46.1 µM (top of the series) unless noted
Procedure, shortened: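 Drosophila S3 cells got compounds at several concentrations plus oleic acid (400 uM solution). Laser-scanning cytometry with 488 nm excitation read lipid droplets at 500-530 nm and cells at 575-640 nm. Percent activity was relative to 20 uM Triacsin C.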
% is set by controls: 0 for no effect and ±100 for the full control effect; potency is the fitted concentration of half-maximal effect.

Compound | lipid storage change, negative = inhibition | Potency
O=C(NC(=S)Nc1ccccc1Br)c1ccc2c(c1)OCO2 | inconclusive: 2.6% | –
COc1ccc(Oc2cccc(Cl)c2CNC(=O)CSCC(=O)O)cc1 | inconclusive: -27.6% | –
N#Cc1ccccc1NC(=S)NC(=O)c1cccs1 | inconclusive: -14.5% | –
COc1cc(C(=O)NC2Cc3ccccc3C2)ccc1OC1CCN(C(C)=O)CC1 | inconclusive: 222% | –
CCc1ccc2[nH]c3nc(C)cc(C)c3c(=O)c2c1 | inconclusive: -3.38% | –
Cc1cccc(NC(=O)CN(C)S(=O)(=O)c2cnc[nH]2)c1 | inconclusive: -12.8% | –
Cc1cccn2c(=O)c3cc(C(=O)NC4CCCCC4)c(=N)n(CCN4CCOCC4)c3nc12 | inconclusive: 37.8% | –
C=CCSc1nnc(-c2ccc(Cl)cc2Cl)o1 | – | inconclusive: 16.4 µM [activator, single point]
COc1cccc2[nH]c3c(=O)n(CCN(C)C)cnc3c12 | inconclusive: -4.18% | –
Cc1cccc(C)c1NC(=O)CNC(=O)CCC(=O)N1CCOCC1 | – | inconclusive: 6.51 µM [falling, single point]
CC(NC(=O)c1cccc(N(C)C)c1)c1ccc(-n2ccnc2)cc1 (stereo unspecified) | inactive: -3.06% | –
CCn1c(=O)c2cc(C(=O)Nc3cc(C)on3)sc2c2ccccc21 | inconclusive: -3.29% | –
CN(C(=O)CCNC(=O)Cn1cnc2ccccc2c1=O)c1ccc(F)cc1 | inconclusive: 22.7% | –
Cc1ccc(S(=O)(=O)/N=C(/Nc2cccc3ccccc23)c2ccc(F)cc2)cc1 | – | inconclusive: 18.4 µM [activator, single point]
CC(=O)OC(C(=O)NCc1ccc2c(c1)OCO2)c1ccccc1Cl (stereo unspecified) | inconclusive: 12.8% | –
CC[N+]1(C)CCC(=C2c3ccccc3CC(=O)c3sccc32)CC1 (stereo unspecified) | – | inconclusive: 0.0058 µM [falling, full curve, poor fit]
CCn1c(=O)c2ccccc2n2c(SCC(=O)NCc3cccs3)nnc12 | inconclusive: -60.3% | –
O=C(Nc1ccc2[nH]ncc2c1)c1ccccc1Cl | inconclusive: 167% | –
CCCS(=O)(=O)C/C(N)=N/OC(=O)c1ccc(Cl)cc1 | inconclusive: 7.8% | –
COc1ccc(Cl)cc1S(=O)(=O)N(C)CC(=O)NCCCn1ccnc1 | inconclusive: -77.1% | –
Cc1cc(C(=O)Cn2nc(C(=O)O)c3ccccc3c2=O)c(C)n1C1CC1 | inconclusive: 42.4% | –
O=C(CN(C(=O)c1csnn1)c1cccc(Cl)c1)NC1CCCC1 | – | inconclusive: 2.06 µM [activator, single point]
Cc1cccn2c(=O)c(C=NCc3ccccc3)c(NCCO)nc12 | inconclusive: -29% | –
CCOC(=O)c1[nH]c2ccc(OC)cc2c1NC(=O)CCN1CCCC(C)C1 (stereo unspecified) | inconclusive: 23.6% | –
COC(=O)c1[nH]c(C)c(/C(O)=C2\C(=O)C(=O)N(CCN(C)C)C2c2ccc(C)o2)c1C (stereo unspecified) | – | inconclusive: 16.4 µM [activator, partial curve]
O=C1CC(c2ccc3c(c2)OCCO3)Oc2ccc([N+](=O)[O-])cc21 (stereo unspecified) | – | active: 7.31 µM

Compound | lipid storage change, negative = inhibition | Potency
Cc1cccn2c(=O)c(C=O)c(N3CCN(C)CC3)nc12 | inconclusive: 57.1% | –
Cc1ccnc(NC(=O)c2ccoc2C)c1 | inconclusive: 19.8% | –
CCOCCCNC(=O)C1CCC(CNS(=O)(=O)c2ccc(F)cc2)CC1 (stereo unspecified) | inconclusive: 7.97% | –
CCCCN1C2CCCC1CC(NC(=O)c1cccc(OC)c1)C2 (stereo unspecified) | – | inconclusive: 6.51 µM [activator, single point]
O=C(O)c1ccc(OS(=O)(=O)c2ccc(Cl)s2)c(Cl)c1 | – | inconclusive: 7.31 µM [activator, partial curve, poor fit]
CC(Oc1ccc(Cl)cc1)C(=O)NNC(=S)NC(=O)c1ccco1 (stereo unspecified) | inconclusive: 76.8% | –
Cc1cc(C)n(S(=O)(=O)c2ccc(C)c(C)c2)n1 | inconclusive: 37% | –
CN(c1ccccc1)S(=O)(=O)c1cccc(NC(=O)CN2CCCc3ccccc32)c1 | inconclusive: -21.1% | –
CNC(=S)Nc1sc2c(c1C(=O)OC)CCC2 | inconclusive: 5.11% | –
O=C(Nc1ccsc1C(=O)O)c1ccccc1Cl | inconclusive: 0.266% | –
COc1ccc(S(=O)(=O)NCCc2c[nH]c3ccc(C)cc23)cc1 | – | inconclusive: 23.1 µM [falling, single point]
O=C(NCc1ccco1)c1ccc(Cn2c(=O)c3sccc3n(Cc3ccc(F)cc3)c2=O)cc1 | inconclusive: 25.6% [at 9.22 µM] | –
Cc1cccc(-n2nc(C)c3c(C(=O)O)cc(-c4cccs4)nc32)c1 | inconclusive: -14.3% | –
Cc1coc2cc3oc(=O)c(CC(=O)N[C@@H](CC(C)C)C(=O)O)c(C)c3cc12 | inconclusive: 8.81% | –
CCOC(=O)/C(N=Nc1sc(C(=O)OC)c(C)c1C(=O)OCC)=C(\O)CCl | – | inconclusive: 29.1 µM [falling, single point]
CCn1c(SCC(=O)NC(C)(C)C)nnc1-c1ccccn1 | inconclusive: 0.891% | –
CCOC(=O)c1ccc(-n2c(CC)nc3ccccc3c2=O)cc1 | inconclusive: -59% | –
COCCCNC(=O)Cn1cc(C(C)=O)c2ccccc21 | inconclusive: 14.4% | –
CCOc1cccc2sc(NC(=O)c3ccc(Br)s3)nc12 | inconclusive: -17.3% | –
COc1ccc(S(=O)(=O)N2CCN(C)CC2)cc1NC(=O)c1ccccc1C | inconclusive: -29.2% | –
O=c1cc(/C=C/c2ccccc2)oc2c1ccc1ccccc12 | inconclusive: -6.05% | –
CCCCc1nc2cc(C(=O)N3CCN(c4cnccn4)CC3)ccc2o1 | – | inconclusive: 16.4 µM [activator, partial curve]
O=C(NNS(=O)(=O)c1ccccc1)c1cnn(-c2ccccc2)c1-n1cccc1 | inactive: 7.45% | –
O=C(O)Cn1cnc2scc(-c3ccccc3)c2c1=O | inconclusive: 165% | –
C=C(NC(=O)C(=C)NC(=O)c1csc(C2=NC3c4csc(n4)C4NC(=O)c5csc(n5)C([C@@](C)(O)C(C)O)NC(=O)C5CSC(=N5)/C(=C\C)NC(=O)C(C(C)O)NC(=O)c5csc(n5)[C@]3(CC2)NC(=O)C(C)NC(=O)C(=C)NC(=O)C(C)NC(=O)C(C(C)CC)NC2C=Cc3c(C(C)O)cc(nc3C2O)C(=O)OC4C)n1)C(N)=O (stereo partly specified) | – | inconclusive: 3.66 µM [falling, full curve, poor fit]

Shown as tab-separated lines: three of the compounds above
Compound	lipid storage change, negative = inhibition	Potency
O=C(Nc1ccsc1C(=O)O)c1ccccc1Cl	inconclusive: 0.266%	–
COc1ccc(S(=O)(=O)NCCc2c[nH]c3ccc(C)cc23)cc1	–	inconclusive: 23.1 µM [falling, single point]
O=C(NCc1ccco1)c1ccc(Cn2c(=O)c3sccc3n(Cc3ccc(F)cc3)c2=O)cc1	inconclusive: 25.6% [at 9.22 µM]	–
